From the supplement of paper PMC10849652
The other results are listed elsewhere or left out.

Sequences of proteins named here, by UniProt entry; tags and fusion partners are left off. A change or cut given only in a name is not applied to a line headed by its entry.
UniProt Q8TC07: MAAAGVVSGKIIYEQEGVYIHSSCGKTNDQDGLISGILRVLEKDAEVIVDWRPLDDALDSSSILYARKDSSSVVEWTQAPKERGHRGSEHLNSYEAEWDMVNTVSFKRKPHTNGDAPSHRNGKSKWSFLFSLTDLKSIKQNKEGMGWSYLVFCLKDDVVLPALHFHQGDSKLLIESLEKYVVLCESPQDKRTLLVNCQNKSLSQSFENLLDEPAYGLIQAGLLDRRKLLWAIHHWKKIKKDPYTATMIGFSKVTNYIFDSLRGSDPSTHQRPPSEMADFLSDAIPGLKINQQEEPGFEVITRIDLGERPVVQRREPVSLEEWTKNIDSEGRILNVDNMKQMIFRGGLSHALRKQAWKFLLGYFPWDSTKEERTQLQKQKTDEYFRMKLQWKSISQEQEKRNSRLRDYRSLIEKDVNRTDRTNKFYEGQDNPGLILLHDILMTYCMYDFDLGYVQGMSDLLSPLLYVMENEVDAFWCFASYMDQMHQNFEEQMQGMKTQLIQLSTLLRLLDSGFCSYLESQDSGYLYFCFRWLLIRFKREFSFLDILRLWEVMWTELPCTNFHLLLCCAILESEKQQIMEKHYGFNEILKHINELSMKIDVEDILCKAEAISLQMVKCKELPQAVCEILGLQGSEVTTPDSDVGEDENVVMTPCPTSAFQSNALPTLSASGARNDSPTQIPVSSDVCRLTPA
UniProt Q96BS2: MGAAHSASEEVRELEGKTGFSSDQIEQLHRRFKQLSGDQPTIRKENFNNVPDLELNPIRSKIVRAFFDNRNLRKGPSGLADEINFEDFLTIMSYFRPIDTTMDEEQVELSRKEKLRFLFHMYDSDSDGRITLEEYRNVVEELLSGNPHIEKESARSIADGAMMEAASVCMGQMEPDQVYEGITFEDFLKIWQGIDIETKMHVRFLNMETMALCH
UniProt Q93075: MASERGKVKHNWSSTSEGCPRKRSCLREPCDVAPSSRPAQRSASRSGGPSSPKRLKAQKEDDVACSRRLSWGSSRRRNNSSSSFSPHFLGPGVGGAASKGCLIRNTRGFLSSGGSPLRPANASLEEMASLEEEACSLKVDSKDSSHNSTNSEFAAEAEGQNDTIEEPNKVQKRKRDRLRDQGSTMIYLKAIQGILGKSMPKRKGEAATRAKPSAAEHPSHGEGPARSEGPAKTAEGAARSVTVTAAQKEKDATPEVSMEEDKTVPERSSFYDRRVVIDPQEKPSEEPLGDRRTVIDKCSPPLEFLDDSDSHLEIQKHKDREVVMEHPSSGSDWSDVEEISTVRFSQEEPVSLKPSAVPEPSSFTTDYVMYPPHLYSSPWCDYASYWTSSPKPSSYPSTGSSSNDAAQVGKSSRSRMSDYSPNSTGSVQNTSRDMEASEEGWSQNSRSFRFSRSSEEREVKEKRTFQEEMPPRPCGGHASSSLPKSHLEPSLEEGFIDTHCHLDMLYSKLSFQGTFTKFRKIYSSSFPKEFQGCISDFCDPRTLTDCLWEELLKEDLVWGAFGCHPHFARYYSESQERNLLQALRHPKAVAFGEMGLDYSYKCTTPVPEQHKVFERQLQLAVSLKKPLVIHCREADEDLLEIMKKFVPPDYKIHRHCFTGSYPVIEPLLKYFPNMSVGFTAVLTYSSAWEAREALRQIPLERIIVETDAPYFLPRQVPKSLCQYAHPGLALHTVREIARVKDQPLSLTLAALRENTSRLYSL
UniProt Q00059: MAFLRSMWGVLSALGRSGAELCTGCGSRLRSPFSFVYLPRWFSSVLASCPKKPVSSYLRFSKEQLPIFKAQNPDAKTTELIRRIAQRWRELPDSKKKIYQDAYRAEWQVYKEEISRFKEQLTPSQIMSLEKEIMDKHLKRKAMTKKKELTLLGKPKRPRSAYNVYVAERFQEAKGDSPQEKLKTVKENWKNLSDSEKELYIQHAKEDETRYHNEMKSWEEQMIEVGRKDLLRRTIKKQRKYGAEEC
UniProt Q9BYX2: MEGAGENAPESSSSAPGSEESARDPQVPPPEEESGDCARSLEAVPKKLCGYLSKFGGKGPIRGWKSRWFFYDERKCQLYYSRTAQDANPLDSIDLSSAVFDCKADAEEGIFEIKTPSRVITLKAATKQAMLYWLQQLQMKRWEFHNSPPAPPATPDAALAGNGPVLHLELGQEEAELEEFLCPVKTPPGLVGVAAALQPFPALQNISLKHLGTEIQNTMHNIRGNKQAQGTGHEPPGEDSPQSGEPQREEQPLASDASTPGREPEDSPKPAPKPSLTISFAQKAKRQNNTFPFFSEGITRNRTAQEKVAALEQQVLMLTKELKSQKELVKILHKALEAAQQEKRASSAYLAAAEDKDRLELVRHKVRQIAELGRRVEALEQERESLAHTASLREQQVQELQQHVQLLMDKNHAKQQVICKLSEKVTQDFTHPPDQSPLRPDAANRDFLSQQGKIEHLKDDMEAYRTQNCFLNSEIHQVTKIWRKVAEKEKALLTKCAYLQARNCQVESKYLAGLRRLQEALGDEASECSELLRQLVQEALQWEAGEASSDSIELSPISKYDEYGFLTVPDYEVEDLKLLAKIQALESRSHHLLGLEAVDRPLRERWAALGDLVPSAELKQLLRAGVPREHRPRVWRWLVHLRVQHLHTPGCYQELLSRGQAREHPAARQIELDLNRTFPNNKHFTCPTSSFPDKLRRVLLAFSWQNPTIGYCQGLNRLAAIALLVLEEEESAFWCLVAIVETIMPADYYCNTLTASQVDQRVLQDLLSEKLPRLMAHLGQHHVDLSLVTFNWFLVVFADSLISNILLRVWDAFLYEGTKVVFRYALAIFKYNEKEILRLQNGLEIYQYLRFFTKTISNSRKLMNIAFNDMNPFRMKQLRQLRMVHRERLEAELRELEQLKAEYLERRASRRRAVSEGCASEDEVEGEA
UniProt P17987, whole entry, looked up: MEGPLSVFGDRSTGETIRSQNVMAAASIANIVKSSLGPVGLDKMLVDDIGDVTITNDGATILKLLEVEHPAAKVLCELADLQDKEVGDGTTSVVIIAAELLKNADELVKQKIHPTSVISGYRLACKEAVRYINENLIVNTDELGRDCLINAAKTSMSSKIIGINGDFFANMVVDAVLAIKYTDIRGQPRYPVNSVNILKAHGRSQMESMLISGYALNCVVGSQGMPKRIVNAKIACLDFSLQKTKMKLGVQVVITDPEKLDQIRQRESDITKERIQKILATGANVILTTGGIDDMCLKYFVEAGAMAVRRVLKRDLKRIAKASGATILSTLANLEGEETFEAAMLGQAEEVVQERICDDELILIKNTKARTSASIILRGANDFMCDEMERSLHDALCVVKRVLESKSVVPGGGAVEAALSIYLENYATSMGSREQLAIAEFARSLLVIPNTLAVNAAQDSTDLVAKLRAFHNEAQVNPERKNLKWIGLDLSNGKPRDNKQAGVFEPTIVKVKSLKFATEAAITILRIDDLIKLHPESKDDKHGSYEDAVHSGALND
UniProt Q01664: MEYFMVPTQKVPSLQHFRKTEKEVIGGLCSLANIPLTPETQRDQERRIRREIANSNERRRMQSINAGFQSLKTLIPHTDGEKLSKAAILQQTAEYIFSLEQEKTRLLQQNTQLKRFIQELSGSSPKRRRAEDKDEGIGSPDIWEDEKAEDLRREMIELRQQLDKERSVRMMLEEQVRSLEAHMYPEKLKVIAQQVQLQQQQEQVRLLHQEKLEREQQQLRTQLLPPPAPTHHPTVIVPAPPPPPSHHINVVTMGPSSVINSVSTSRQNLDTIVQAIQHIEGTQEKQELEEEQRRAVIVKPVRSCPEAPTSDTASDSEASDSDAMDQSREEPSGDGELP
UniProt P15923: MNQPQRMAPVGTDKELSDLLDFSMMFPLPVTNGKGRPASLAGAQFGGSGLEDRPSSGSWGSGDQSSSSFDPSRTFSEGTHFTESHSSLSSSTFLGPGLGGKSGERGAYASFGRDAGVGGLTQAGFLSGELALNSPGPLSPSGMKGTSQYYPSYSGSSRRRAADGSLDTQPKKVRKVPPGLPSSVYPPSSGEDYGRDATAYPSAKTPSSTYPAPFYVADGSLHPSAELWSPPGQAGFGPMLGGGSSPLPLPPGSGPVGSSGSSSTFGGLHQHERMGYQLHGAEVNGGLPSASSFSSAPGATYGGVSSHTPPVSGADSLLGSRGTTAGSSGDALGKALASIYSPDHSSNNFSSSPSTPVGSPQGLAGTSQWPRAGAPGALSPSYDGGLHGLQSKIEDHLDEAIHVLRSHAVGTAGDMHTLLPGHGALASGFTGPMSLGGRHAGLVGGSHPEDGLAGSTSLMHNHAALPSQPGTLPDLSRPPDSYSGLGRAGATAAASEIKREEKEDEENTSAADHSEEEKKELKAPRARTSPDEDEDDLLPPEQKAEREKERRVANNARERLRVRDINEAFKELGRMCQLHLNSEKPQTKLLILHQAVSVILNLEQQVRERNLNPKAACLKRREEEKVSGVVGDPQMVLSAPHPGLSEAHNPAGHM
UniProt P10646, whole entry, looked up: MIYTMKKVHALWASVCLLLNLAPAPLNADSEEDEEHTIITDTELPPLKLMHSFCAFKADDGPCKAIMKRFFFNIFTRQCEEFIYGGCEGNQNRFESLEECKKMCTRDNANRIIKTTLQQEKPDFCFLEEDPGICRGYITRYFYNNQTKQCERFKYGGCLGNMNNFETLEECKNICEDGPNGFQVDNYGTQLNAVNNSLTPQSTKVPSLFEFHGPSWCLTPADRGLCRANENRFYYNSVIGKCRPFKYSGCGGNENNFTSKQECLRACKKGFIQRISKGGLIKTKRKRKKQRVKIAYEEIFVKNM
UniProt Q15545, whole entry, looked up: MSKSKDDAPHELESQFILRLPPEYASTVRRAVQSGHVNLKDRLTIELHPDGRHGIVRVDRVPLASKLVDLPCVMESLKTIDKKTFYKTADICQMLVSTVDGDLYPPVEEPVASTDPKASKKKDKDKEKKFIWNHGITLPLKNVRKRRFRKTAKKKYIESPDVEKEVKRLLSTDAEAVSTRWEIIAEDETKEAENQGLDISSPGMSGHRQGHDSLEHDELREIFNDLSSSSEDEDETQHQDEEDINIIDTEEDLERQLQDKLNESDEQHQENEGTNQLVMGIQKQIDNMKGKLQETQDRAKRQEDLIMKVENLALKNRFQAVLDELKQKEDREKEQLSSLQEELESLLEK
UniProt Q15554: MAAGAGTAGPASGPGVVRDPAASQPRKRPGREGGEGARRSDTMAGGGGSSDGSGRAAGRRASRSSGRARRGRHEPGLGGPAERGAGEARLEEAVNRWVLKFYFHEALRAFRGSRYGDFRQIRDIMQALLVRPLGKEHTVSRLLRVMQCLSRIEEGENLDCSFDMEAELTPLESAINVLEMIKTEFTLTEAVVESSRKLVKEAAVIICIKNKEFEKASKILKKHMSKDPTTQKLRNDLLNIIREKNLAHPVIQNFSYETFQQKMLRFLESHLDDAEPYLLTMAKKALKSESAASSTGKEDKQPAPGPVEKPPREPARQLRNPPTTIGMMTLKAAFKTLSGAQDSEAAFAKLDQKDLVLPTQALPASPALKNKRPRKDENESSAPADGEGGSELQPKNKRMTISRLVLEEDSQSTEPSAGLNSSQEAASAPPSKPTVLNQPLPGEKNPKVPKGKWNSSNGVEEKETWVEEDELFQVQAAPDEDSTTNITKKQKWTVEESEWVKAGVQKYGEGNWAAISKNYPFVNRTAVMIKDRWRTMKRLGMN
UniProt Q9NUW8, whole entry, looked up: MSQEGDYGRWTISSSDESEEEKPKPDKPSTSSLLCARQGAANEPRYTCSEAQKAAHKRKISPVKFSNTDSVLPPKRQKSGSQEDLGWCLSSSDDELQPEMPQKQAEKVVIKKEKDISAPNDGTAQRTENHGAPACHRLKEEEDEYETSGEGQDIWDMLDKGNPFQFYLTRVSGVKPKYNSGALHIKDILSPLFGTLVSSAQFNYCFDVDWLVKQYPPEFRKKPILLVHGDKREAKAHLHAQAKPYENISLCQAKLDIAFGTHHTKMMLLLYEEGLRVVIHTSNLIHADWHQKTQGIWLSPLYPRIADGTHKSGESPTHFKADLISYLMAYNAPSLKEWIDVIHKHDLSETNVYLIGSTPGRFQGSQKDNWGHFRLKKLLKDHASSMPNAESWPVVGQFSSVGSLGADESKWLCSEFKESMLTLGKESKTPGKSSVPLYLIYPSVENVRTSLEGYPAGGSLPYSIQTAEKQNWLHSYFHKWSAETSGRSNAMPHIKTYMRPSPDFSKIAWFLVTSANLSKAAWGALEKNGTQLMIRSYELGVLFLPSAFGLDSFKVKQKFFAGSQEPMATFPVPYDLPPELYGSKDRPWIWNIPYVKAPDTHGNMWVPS
UniProt Q9NYB0: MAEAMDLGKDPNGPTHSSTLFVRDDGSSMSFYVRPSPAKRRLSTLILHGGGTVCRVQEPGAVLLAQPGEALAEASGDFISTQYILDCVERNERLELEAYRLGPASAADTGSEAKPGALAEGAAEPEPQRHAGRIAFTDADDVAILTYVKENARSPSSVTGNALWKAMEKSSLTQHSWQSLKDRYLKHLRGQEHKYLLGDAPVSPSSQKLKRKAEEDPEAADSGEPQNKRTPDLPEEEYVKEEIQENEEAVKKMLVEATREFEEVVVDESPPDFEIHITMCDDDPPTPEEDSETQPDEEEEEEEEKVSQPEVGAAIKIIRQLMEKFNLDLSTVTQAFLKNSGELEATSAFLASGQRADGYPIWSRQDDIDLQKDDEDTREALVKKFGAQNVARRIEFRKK

Key:
Assay in all cases: log2 fold change, soluble protein after heating vs DMSO (PISA); higher = thermal stabilisation; K562 lysate, 10 uM; active = over 0.2 and 3.5 SD of the protein, either way, in both replicates (recomputed)
vemurafenib = compound: CCCS(=O)(=O)Nc1ccc(F)c(C(=O)c2c[nH]c3ncc(-c4ccc(Cl)cc4)cc23)c1F [vemurafenib]
Method in brief: (§1)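 Thermal stability, expressed as log-two fold change relative to solvent controls, is given from duplicates. Crude K562 extract in PBS pH 7.4 with 1 mM MgCl2, at 1 mg/mL protein, was treated with 10 μM compound for 30 min and heated in aliquots for 3 min across 48°C-58°C. After pooling, adjustment to 0.5% NP-40 at 4°C and centrifugation at 21,000xg for 90 min, supernatant protein was measured by TMTpro 16plex LC-MS/MS with channel sums equalised.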

[1] = compound: CCCS(=O)(=O)Nc1ccc(F)c(C(=O)c2c[nH]c3ncc(Cl)cc23)c1F
Method in brief: as §1

barasertib = compound: CCN(CCCOc1ccc2c(Nc3cc(CC(=O)Nc4cccc(F)c4)[nH]n3)ncnc2c1)CCOP(=O)(O)O [barasertib]
Method in brief: as §1

[2] = compound: CC[C@@H]1C(=O)N(C)c2cnc(Nc3ccc(C(=O)NC4CCN(C)CC4)cc3OC)nc2N1C1CCCC1
Method in brief: as §1

volasertib = compound: CC[C@@H]1C(=O)N(C)c2cnc(Nc3ccc(C(=O)N[C@H]4CC[C@H](N5CCN(CC6CC6)CC5)CC4)cc3OC)nc2N1C(C)C [volasertib]
Method in brief: as §1

[3] = compound: CCn1c(C(=O)N(C2CC2)C2CC2)cc2c3c(ncn3C)c(Nc3cc(C)n(C)n3)nc21
Method in brief: as §1

[4] = compound: CCn1cc(-c2ccnc3[nH]c(-c4cccc(CN(C)C)c4)cc23)c(-c2ccc(NC(=O)N(C)C)cc2)n1
Method in brief: as §1

[5] = compound: CN1CCC(CNc2ccc3ncc(-c4cccc(OC(F)(F)F)c4)n3n2)CC1
Method in brief: as §1

saracatinib = compound: CN1CCN(CCOc2cc(OC3CCOCC3)c3c(Nc4c(Cl)ccc5c4OCO5)ncnc3c2)CC1 [saracatinib]
Method in brief: as §1

sotrastaurin = compound: CN1CCN(c2nc(C3=C(c4c[nH]c5ccccc45)C(=O)NC3=O)c3ccccc3n2)CC1 [sotrastaurin]
Method in brief: as §1

Measured: log2 fold change

TAPT1 (UniProt Q6NXT6)
inactive: vemurafenib 0.031 | [1] 0.043 | barasertib -0.039 | [2] 0.024 | volasertib 0.028 | [3] -0.026 | [5] 0.106 | saracatinib -0.014 | sotrastaurin -0.002
active: [4] -0.229

TBC1D15 isoform 3 (UniProt Q8TC07)
inactive: vemurafenib -0.026 | [1] 0.007 | barasertib 0.031 | [2] -0.048 | volasertib -0.032 | [3] 0.022 | [4] 0.082 | [5] -0.073 | saracatinib 0.025 | sotrastaurin 0.001

TESC (UniProt Q96BS2)
active: barasertib 0.291
inactive: vemurafenib 0.045 | [1] 0.029 | [2] 0.047 | volasertib 0.036 | [3] -0.004 | [4] 0.109 | [5] -0.023 | saracatinib 0.063 | sotrastaurin 0.012

TAOK2 (UniProt Q9UL54)
inactive: vemurafenib -0.039 | [1] -0.041 | barasertib 0.059 | [2] 0.021 | volasertib -0.056 | [3] -0.077 | [4] -0.005 | [5] -0.003 | saracatinib -0.005 | sotrastaurin 0.109

TBC1D5 isoform 2 (UniProt Q92609)
inactive: vemurafenib 0.003 | [1] 0.011 | barasertib 0.023 | [2] 0.002 | volasertib -0.061 | [3] 0 | [4] -0.002 | [5] -0.043 | saracatinib -0.002 | sotrastaurin 0.006

TATDN2 (UniProt Q93075)
inactive: vemurafenib -0.065 | [1] -0.019 | barasertib 0.074 | [2] 0.021 | volasertib 0.069 | [3] 0.065 | [4] -0.054 | [5] 0.042 | saracatinib -0.043 | sotrastaurin 0.053

TFAM (UniProt Q00059)
inactive: vemurafenib -0.004 | [1] -0.002 | barasertib -0.021 | [2] 0.032 | volasertib 0.014 | [3] 0.015 | [4] 0.041 | [5] -0.177 | saracatinib 0.016 | sotrastaurin -0.017

TBC1D2 (UniProt Q9BYX2)
inactive: vemurafenib 0.03 | [1] 0.025 | barasertib 0.003 | [2] 0.131 | volasertib -0.021 | [3] 0.026 | [4] -0.024 | [5] -0.033 | saracatinib 0.036 | sotrastaurin -0.018

TANK (UniProt Q92844)
inactive: vemurafenib 0.023 | [1] 0.004 | barasertib 0.007 | [2] -0.026 | volasertib -0.02 | [3] 0.004 | [4] 0.18 | [5] -0.054 | saracatinib 0.01 | sotrastaurin 0

TCP1 (UniProt P17987)
inactive: vemurafenib -0.018 | [1] -0.001 | barasertib -0.04 | [2] -0.008 | volasertib 0.014 | [3] -0.007 | [4] 0.015 | [5] 0.006 | saracatinib -0.01 | sotrastaurin -0.023

TBCC (UniProt Q15814)
inactive: vemurafenib -0.021 | [1] 0.013 | barasertib 0.023 | [2] -0.017 | volasertib -0.027 | [3] -0.021 | [4] -0.005 | [5] 0.026 | saracatinib 0 | sotrastaurin 0.024

TARBP2 (UniProt Q15633)
inactive: vemurafenib -0.035 | [1] 0.092 | barasertib 0.093 | [2] -0.145 | volasertib -0.034 | [3] -0.016 | [4] -0.02 | [5] -0.093 | saracatinib 0.035 | sotrastaurin -0.006

TECR (UniProt Q9NZ01)
inactive: vemurafenib -0.003 | [1] 0.054 | barasertib 0.082 | [2] -0.02 | volasertib 0.001 | [3] 0.032 | [4] 0.014 | [5] -0.247 | saracatinib 0.045 | sotrastaurin -0.034

TFAP4 (UniProt Q01664)
inactive: vemurafenib 0.105 | [1] 0.021 | barasertib 0.072 | [2] 0.131 | volasertib -0.112 | [3] 0.129 | [4] 0.597 | [5] -0.189 | sotrastaurin 0.007

TCAF2 (UniProt A6NFQ2)
inactive: vemurafenib 0.052 | [1] 0.041 | barasertib -0.048 | [2] -0.027 | volasertib -0.049 | [3] 0.045 | [4] 0.003 | [5] -0.05 | saracatinib 0.004 | sotrastaurin -0.017

TCF3 (UniProt P15923)
inactive: vemurafenib -0.01 | [1] 0.002 | barasertib 0.012 | [2] 0.129 | volasertib 0.002 | [3] 0.047 | [4] 0.028 | [5] 0.043 | saracatinib -0.158 | sotrastaurin 0.002

TALDO1 (UniProt P37837)
inactive: vemurafenib -0.023 | [1] -0.031 | barasertib -0.019 | [2] -0.06 | volasertib -0.002 | [3] 0.015 | [4] 0.043 | [5] -0.093 | saracatinib -0.005 | sotrastaurin 0.003

TCEA1 (UniProt P23193)
inactive: vemurafenib -0.025 | [1] 0.021 | barasertib -0.053 | [2] 0.042 | volasertib 0.013 | [3] -0.022 | [4] 0.206 | [5] -0.103 | saracatinib -0.006 | sotrastaurin 0.014

TFPI (UniProt P10646)
active: [4] 0.689
inactive: vemurafenib -0.079 | [1] 0.005 | barasertib 0.015 | [2] -0.019 | volasertib 0.016 | [3] 0.093 | [5] -0.321 | sotrastaurin 0.167

TAF6L (UniProt Q9Y6J9)
inactive: vemurafenib -0.029 | [1] 0.035 | barasertib -0.05 | volasertib -0.007 | [3] -0.015 | [4] 0.018 | [5] 0.022 | saracatinib 0.029 | sotrastaurin 0.05
active: [2] -0.245

TAF7 (UniProt Q15545)
inactive: vemurafenib -0.01 | [1] -0.033 | barasertib -0.022 | [2] -0.031 | volasertib 0.025 | [3] -0.025 | [4] 0.035 | [5] 0.048 | saracatinib 0.006 | sotrastaurin 0.017

TAL1 (UniProt P17542)
inactive: vemurafenib 0.016 | [1] -0.055 | barasertib 0.023 | [2] 0.115 | volasertib 0.028 | [3] 0.102 | [4] -0.007 | [5] 0.035 | saracatinib 0.029 | sotrastaurin -0.005

TERF2 (UniProt Q15554)
inactive: vemurafenib -0.009 | [1] 0.007 | barasertib 0.003 | [2] -0.025 | volasertib -0.052 | [3] 0.014 | [4] -0.087 | [5] -0.01 | saracatinib 0.031 | sotrastaurin 0.056

TES (UniProt Q9UGI8)
inactive: vemurafenib -0.006 | [1] -0.007 | barasertib -0.007 | [2] 0.047 | volasertib 0.018 | [3] -0.004 | [4] -0.005 | [5] 0.026 | saracatinib -0.013 | sotrastaurin -0.052

TBL1XR1 (UniProt Q9BZK7)
inactive: vemurafenib 0.026 | [1] 0.052 | barasertib 0.041 | [2] 0.016 | volasertib 0.035 | [3] -0.035 | [4] 0.171 | [5] 0.011 | saracatinib -0.014 | sotrastaurin -0.005

Eight neighbouring entries already listed, quoted:
TARBP2 (UniProt Q15633)
inactive: vemurafenib -0.035 | [1] 0.092 | barasertib 0.093 | [2] -0.145 | volasertib -0.034 | [3] -0.016 | [4] -0.02 | [5] -0.093 | saracatinib 0.035 | sotrastaurin -0.006

TECR (UniProt Q9NZ01)
inactive: vemurafenib -0.003 | [1] 0.054 | barasertib 0.082 | [2] -0.02 | volasertib 0.001 | [3] 0.032 | [4] 0.014 | [5] -0.247 | saracatinib 0.045 | sotrastaurin -0.034

TFAP4 (UniProt Q01664)
inactive: vemurafenib 0.105 | [1] 0.021 | barasertib 0.072 | [2] 0.131 | volasertib -0.112 | [3] 0.129 | [4] 0.597 | [5] -0.189 | sotrastaurin 0.007

TCAF2 (UniProt A6NFQ2)
inactive: vemurafenib 0.052 | [1] 0.041 | barasertib -0.048 | [2] -0.027 | volasertib -0.049 | [3] 0.045 | [4] 0.003 | [5] -0.05 | saracatinib 0.004 | sotrastaurin -0.017

TCF3 (UniProt P15923)
inactive: vemurafenib -0.01 | [1] 0.002 | barasertib 0.012 | [2] 0.129 | volasertib 0.002 | [3] 0.047 | [4] 0.028 | [5] 0.043 | saracatinib -0.158 | sotrastaurin 0.002

TALDO1 (UniProt P37837)
inactive: vemurafenib -0.023 | [1] -0.031 | barasertib -0.019 | [2] -0.06 | volasertib -0.002 | [3] 0.015 | [4] 0.043 | [5] -0.093 | saracatinib -0.005 | sotrastaurin 0.003

TCEA1 (UniProt P23193)
inactive: vemurafenib -0.025 | [1] 0.021 | barasertib -0.053 | [2] 0.042 | volasertib 0.013 | [3] -0.022 | [4] 0.206 | [5] -0.103 | saracatinib -0.006 | sotrastaurin 0.014

TFPI (UniProt P10646)
active: [4] 0.689
inactive: vemurafenib -0.079 | [1] 0.005 | barasertib 0.015 | [2] -0.019 | volasertib 0.016 | [3] 0.093 | [5] -0.321 | sotrastaurin 0.167

Next part:

TBC1D24 (UniProt Q9ULP9)
inactive: vemurafenib 0.048 | [1] 0.019 | barasertib 0.002 | [2] -0.066 | volasertib -0.079 | [3] -0.03 | [4] -0.057 | [5] -0.022 | saracatinib 0.032 | sotrastaurin 0.028

TBC1D13 (UniProt Q9NVG8)
inactive: vemurafenib -0.016 | [1] -0.003 | barasertib 0.052 | [2] 0.04 | volasertib 0.013 | [3] 0.011 | [4] -0.071 | [5] 0.024 | saracatinib 0.017 | sotrastaurin -0.004

TBL1X (UniProt O60907)
inactive: vemurafenib -0.004 | [1] -0.006 | barasertib 0.012 | [2] 0.016 | volasertib 0.021 | [3] 0.068 | [4] -0.085 | [5] 0.11 | saracatinib 0 | sotrastaurin 0.017

TDP1 (UniProt Q9NUW8)
inactive: vemurafenib -0.026 | [1] -0.015 | barasertib -0.01 | [2] -0.07 | volasertib -0.033 | [3] 0.004 | [4] -0.099 | [5] 0.041 | saracatinib 0.015 | sotrastaurin 0.046

TERF2IP (UniProt Q9NYB0)
active: [4] 0.269
inactive: vemurafenib -0.009 | [1] -0.003 | barasertib -0.006 | [2] 0.075 | volasertib 0.022 | [3] -0.015 | [5] -0.152 | saracatinib -0.003 | sotrastaurin 0.008
